From PubChem BioAssay record AID504749 (NCATS, 2011).

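Malaria parasite (P. falciparum) lines kept in red blood cells; parasite DNA is measured by SYBR Green fluorescence after lysis, 72 h after compound addition.
Each compound was titrated across a series from about 0.000037 to 29 µM.
The number is the fitted AC50, the concentration giving a half-maximal change in signal; a lower value means higher potency, whether the curve shows a decrease or an increase.
Calls follow the curve class and fit quality: every row here is inconclusive, covering signal-raising curves and weak, poorly fitted, partial or highest-dose-only inhibition curves.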

Values are in µM.
Every entry below has the call inconclusive.
Only part of the assay is shown, chiefly results filed as inconclusive.
A potency from a partial, single-point or poor curve is only a rough figure.
The first word of each remark tells which way the curve ran; it can be opposite to the aim of the assay.

| Compound | tested on / at | Potency (µM) | remark |
|---|---|---|---|
| `CC(CN(C)C)CN1c2ccccc2Sc2ccc(C(F)(F)F)cc21` (centres undefined) | TAB109 | 2.239 | inhibitor, full curve, poor fit |
| `CC(CN(C)C)CN1c2ccccc2Sc2ccc(C(F)(F)F)cc21` (centres undefined) | CP329 | 7.569 | inhibitor, partial curve, poor fit |
| `CC(CN(C)C)CN1c2ccccc2Sc2ccc(C(F)(F)F)cc21` (centres undefined) | CP194 | 5.358 | inhibitor, partial curve |
| `COc1cc2c(cc1O)CCN[C@@]21CS[C@H]2c3c(OC(C)=O)c(C)c4c(c3C(COC1=O)N1C2C2c3c(cc(C)c(OC)c3O)CC([C@@H]1O)N2C)OCO4` (some centres undefined) | DIV17 | 0.0002 | activator |
| `COc1cc2c(cc1O)CCN[C@@]21CS[C@H]2c3c(OC(C)=O)c(C)c4c(c3C(COC1=O)N1C2C2c3c(cc(C)c(OC)c3O)CC([C@@H]1O)N2C)OCO4` (some centres undefined) | JCK | 0.0013 | inhibitor |
| `COc1cc2c(cc1O)CCN[C@@]21CS[C@H]2c3c(OC(C)=O)c(C)c4c(c3C(COC1=O)N1C2C2c3c(cc(C)c(OC)c3O)CC([C@@H]1O)N2C)OCO4` (some centres undefined) | PAD | 0.001 | inhibitor, full curve, poor fit |
| `C=C1C(n2cnc3c(=O)[nH]c(N)nc32)C[C@H](O)[C@H]1CO` (some centres undefined) | P93_24 | 12.59 | inhibitor, single point |
| `C=C1C(n2cnc3c(=O)[nH]c(N)nc32)C[C@H](O)[C@H]1CO` (some centres undefined) | W2 | 13.46 | inhibitor, single point |
| `C=C1C(n2cnc3c(=O)[nH]c(N)nc32)C[C@H](O)[C@H]1CO` (some centres undefined) | PC49 | 11.22 | inhibitor, single point |
| `C=C1C(n2cnc3c(=O)[nH]c(N)nc32)C[C@H](O)[C@H]1CO` (some centres undefined) | CP260 | 10 | inhibitor, single point |
| `C=C1C(n2cnc3c(=O)[nH]c(N)nc32)C[C@H](O)[C@H]1CO` (some centres undefined) | ATS95 | 17.78 | inhibitor, single point |
| `C=C1C(n2cnc3c(=O)[nH]c(N)nc32)C[C@H](O)[C@H]1CO` (some centres undefined) | CP250 | 8.912 | inhibitor, single point |
| `C=C1C(n2cnc3c(=O)[nH]c(N)nc32)C[C@H](O)[C@H]1CO` (some centres undefined) | DIV14 | 9.528 | inhibitor, partial curve |
| `C=C1C(n2cnc3c(=O)[nH]c(N)nc32)C[C@H](O)[C@H]1CO` (some centres undefined) | CP268 | 9.528 | inhibitor, partial curve, poor fit |
| `C=C1C(n2cnc3c(=O)[nH]c(N)nc32)C[C@H](O)[C@H]1CO` (some centres undefined) | CP286 | 17.78 | inhibitor, single point |
| `C=C1C(n2cnc3c(=O)[nH]c(N)nc32)C[C@H](O)[C@H]1CO` (some centres undefined) | TAB109 | 17.78 | inhibitor, single point |
| `C=C1C(n2cnc3c(=O)[nH]c(N)nc32)C[C@H](O)[C@H]1CO` (some centres undefined) | CP256 | 8.912 | inhibitor, single point |
| `C=C1C(n2cnc3c(=O)[nH]c(N)nc32)C[C@H](O)[C@H]1CO` (some centres undefined) | CP203 | 9.528 | inhibitor, single point |
| `C=C1C(n2cnc3c(=O)[nH]c(N)nc32)C[C@H](O)[C@H]1CO` (some centres undefined) | CP262 | 6.012 | inhibitor, partial curve |
| `C=C1C(n2cnc3c(=O)[nH]c(N)nc32)C[C@H](O)[C@H]1CO` (some centres undefined) | DIV17 | 15.1 | inhibitor, single point |
| `C=C1C(n2cnc3c(=O)[nH]c(N)nc32)C[C@H](O)[C@H]1CO` (some centres undefined) | ICS | 12.59 | inhibitor, single point |
| `C=C1C(n2cnc3c(=O)[nH]c(N)nc32)C[C@H](O)[C@H]1CO` (some centres undefined) | CP185 | 17.78 | inhibitor, single point |
| `C=C1C(n2cnc3c(=O)[nH]c(N)nc32)C[C@H](O)[C@H]1CO` (some centres undefined) | CP335 | 8.492 | inhibitor, partial curve |
| `C=C1C(n2cnc3c(=O)[nH]c(N)nc32)C[C@H](O)[C@H]1CO` (some centres undefined) | CP291 | 16.94 | inhibitor, single point |
| `C=C1C(n2cnc3c(=O)[nH]c(N)nc32)C[C@H](O)[C@H]1CO` (some centres undefined) | GB4 | 12 | inhibitor, partial curve, poor fit |
| `C=C1C(n2cnc3c(=O)[nH]c(N)nc32)C[C@H](O)[C@H]1CO` (some centres undefined) | 3D7 | 11.22 | inhibitor, single point |
| `C=C1C(n2cnc3c(=O)[nH]c(N)nc32)C[C@H](O)[C@H]1CO` (some centres undefined) | CP305 | 9.528 | inhibitor, partial curve, poor fit |
| `C=C1C(n2cnc3c(=O)[nH]c(N)nc32)C[C@H](O)[C@H]1CO` (some centres undefined) | PC26 | 19.01 | inhibitor, single point |
| `C=C1C(n2cnc3c(=O)[nH]c(N)nc32)C[C@H](O)[C@H]1CO` (some centres undefined) | CP325 | 19.01 | inhibitor, single point |
| `C=C1C(n2cnc3c(=O)[nH]c(N)nc32)C[C@H](O)[C@H]1CO` (some centres undefined) | PC15 | 7.943 | inhibitor, partial curve |
| `C=Cc1c(C)/c2[n-]/c1=C\c1[n-]c(c(CC)c1C)/C=c1\[n-]c3c(c1C)C(=O)C(C(=O)[O-])C=3c1[n-]c(c(C)c1CCC(=O)[O-])\C=2.[Cu].[Na+].[Na+]` (centres undefined) | PAD | 10 | inhibitor, single point |
| `C=Cc1c(C)/c2[n-]/c1=C\c1[n-]c(c(CC)c1C)/C=c1\[n-]c3c(c1C)C(=O)C(C(=O)[O-])C=3c1[n-]c(c(C)c1CCC(=O)[O-])\C=2.[Cu].[Na+].[Na+]` (centres undefined) | CP315 | 13.46 | inhibitor, partial curve, poor fit |
| `C=Cc1c(C)/c2[n-]/c1=C\c1[n-]c(c(CC)c1C)/C=c1\[n-]c3c(c1C)C(=O)C(C(=O)[O-])C=3c1[n-]c(c(C)c1CCC(=O)[O-])\C=2.[Cu].[Na+].[Na+]` (centres undefined) | SC27B | 14.13 | inhibitor, single point |
| `C=Cc1c(C)/c2[n-]/c1=C\c1[n-]c(c(CC)c1C)/C=c1\[n-]c3c(c1C)C(=O)C(C(=O)[O-])C=3c1[n-]c(c(C)c1CCC(=O)[O-])\C=2.[Cu].[Na+].[Na+]` (centres undefined) | P94_40 | 11.22 | inhibitor, single point |
| `C=Cc1c(C)/c2[n-]/c1=C\c1[n-]c(c(CC)c1C)/C=c1\[n-]c3c(c1C)C(=O)C(C(=O)[O-])C=3c1[n-]c(c(C)c1CCC(=O)[O-])\C=2.[Cu].[Na+].[Na+]` (centres undefined) | PC26 | 12 | inhibitor, single point |
| `C=Cc1c(C)/c2[n-]/c1=C\c1[n-]c(c(CC)c1C)/C=c1\[n-]c3c(c1C)C(=O)C(C(=O)[O-])C=3c1[n-]c(c(C)c1CCC(=O)[O-])\C=2.[Cu].[Na+].[Na+]` (centres undefined) | PC15 | 17.78 | inhibitor, single point |
| `C=Cc1c(C)/c2[n-]/c1=C\c1[n-]c(c(CC)c1C)/C=c1\[n-]c3c(c1C)C(=O)C(C(=O)[O-])C=3c1[n-]c(c(C)c1CCC(=O)[O-])\C=2.[Cu].[Na+].[Na+]` (centres undefined) | DIV14 | 7.569 | inhibitor, partial curve |
| `C=Cc1c(C)/c2[n-]/c1=C\c1[n-]c(c(CC)c1C)/C=c1\[n-]c3c(c1C)C(=O)C(C(=O)[O-])C=3c1[n-]c(c(C)c1CCC(=O)[O-])\C=2.[Cu].[Na+].[Na+]` (centres undefined) | TAB165 | 17.78 | inhibitor, single point |
| `C=Cc1c(C)/c2[n-]/c1=C\c1[n-]c(c(CC)c1C)/C=c1\[n-]c3c(c1C)C(=O)C(C(=O)[O-])C=3c1[n-]c(c(C)c1CCC(=O)[O-])\C=2.[Cu].[Na+].[Na+]` (centres undefined) | AA1029 | 11.22 | inhibitor, single point |

The last 5 entries again:

* C=Cc1c(C)/c2[n-]/c1=C\c1[n-]c(c(CC)c1C)/C=c1\[n-]c3c(c1C)C(=O)C(C(=O)[O-])C=3c1[n-]c(c(C)c1CCC(=O)[O-])\C=2.[Cu].[Na+].[Na+] (centres undefined) [PC26] : Potency 12 µM (inhibitor, single point)
* C=Cc1c(C)/c2[n-]/c1=C\c1[n-]c(c(CC)c1C)/C=c1\[n-]c3c(c1C)C(=O)C(C(=O)[O-])C=3c1[n-]c(c(C)c1CCC(=O)[O-])\C=2.[Cu].[Na+].[Na+] (centres undefined) [PC15] : Potency 17.78 µM (inhibitor, single point)
* C=Cc1c(C)/c2[n-]/c1=C\c1[n-]c(c(CC)c1C)/C=c1\[n-]c3c(c1C)C(=O)C(C(=O)[O-])C=3c1[n-]c(c(C)c1CCC(=O)[O-])\C=2.[Cu].[Na+].[Na+] (centres undefined) [DIV14] : Potency 7.569 µM (inhibitor, partial curve)
* C=Cc1c(C)/c2[n-]/c1=C\c1[n-]c(c(CC)c1C)/C=c1\[n-]c3c(c1C)C(=O)C(C(=O)[O-])C=3c1[n-]c(c(C)c1CCC(=O)[O-])\C=2.[Cu].[Na+].[Na+] (centres undefined) [TAB165] : Potency 17.78 µM (inhibitor, single point)
* C=Cc1c(C)/c2[n-]/c1=C\c1[n-]c(c(CC)c1C)/C=c1\[n-]c3c(c1C)C(=O)C(C(=O)[O-])C=3c1[n-]c(c(C)c1CCC(=O)[O-])\C=2.[Cu].[Na+].[Na+] (centres undefined) [AA1029] : Potency 11.22 µM (inhibitor, single point)